# Measurements reported in PMC11589570, “Critical assessment of LC3/GABARAP ligands used for degrader development and ligandability of LC3/GABARAP binding pockets” (Nature Communications, 2024).
# Several values for one entry are separate records, joined by “and”; a condition that tells them apart may be missing. Identical values can stand only once. The source gives many values for each of these; only a part stands here.
# Tested on: RPE1 cells
# Test: Cell growth assay (IncuCyte confluence over 72 h)
# Format: cell-based
# Procedure: Cell growth assay: Cell confluence (phase) from RPE1 (hTERT RPE-1, ATCC CLR_4000) or U2OS (ATCC, HTB-96) cell lines were monitored over time with the IncuCyte S3 (Sartiorius, Germany) in 384-well plates in 50 ul DMEM media, supplemented with 10% Fetal Bovine Serum (FBS) 1% penicillin/Streptomycin and incubated 24 h before treatment. Experiment was performed as described in Cano-Franco et al.. 50 μl of media containing either 2× final concentration of indicated compounds in or control compounds (final conc.: 0.1% DMSO, 250 nM Torin1, 200 ng/mL Bafilomycin) were added and images were taken every two hours over 72 h. Cell confluence is represented as % of area covered by cells. Each data point represents the average ratio or confluence obtained from three individual wells of the plate.
structure (smiles),measurement,setting,value
O=C1Nc2ccc(Br)cc2C1=Cc1cc(O)c(O)c(Br)c1 [compound 1],RPE1 cell growth,"3 uM, 2 h, listed as AN1",29 and 27 and 22
same,RPE1 cell growth,"3 uM, 4 h, listed as AN1",34 and 28 and 24
same,RPE1 cell growth,"3 uM, 6 h, listed as AN1",37 and 28 and 26
same,RPE1 cell growth,"3 uM, 8 h, listed as AN1",40 and 31 and 28
same,RPE1 cell growth,"3 uM, 22 h, listed as AN1",55 and 46 and 38
same,RPE1 cell growth,"3 uM, 24 h, listed as AN1",58 and 47 and 40
same,RPE1 cell growth,"3 uM, 26 h, listed as AN1",59 and 48 and 43
same,RPE1 cell growth,"3 uM, 28 h, listed as AN1",63 and 48 and 42
same,RPE1 cell growth,"3 uM, 30 h, listed as AN1",66 and 49 and 45
same,RPE1 cell growth,"3 uM, 32 h, listed as AN1",68 and 50 and 49
same,RPE1 cell growth,"3 uM, 34 h, listed as AN1",69 and 50 and 52
same,RPE1 cell growth,"3 uM, 36 h, listed as AN1",73 and 53 and 54
same,RPE1 cell growth,"3 uM, 38 h, listed as AN1",77 and 54 and 56
same,RPE1 cell growth,"3 uM, 40 h, listed as AN1",81 and 56 and 59
same,RPE1 cell growth,"3 uM, 42 h, listed as AN1",84 and 57 and 63
same,RPE1 cell growth,"3 uM, 44 h, listed as AN1",87 and 62 and 64
same,RPE1 cell growth,"3 uM, 46 h, listed as AN1",89 and 64 and 66
same,RPE1 cell growth,"3 uM, 48 h, listed as AN1",90 and 69 and 71
same,RPE1 cell growth,"3 uM, 50 h, listed as AN1",93 and 71 and 74
same,RPE1 cell growth,"3 uM, 52 h, listed as AN1",94 and 75 and 77
same,RPE1 cell growth,"3 uM, 54 h, listed as AN1",96 and 78 and 81
same,RPE1 cell growth,"3 uM, 56 h, listed as AN1",97 and 81 and 85
same,RPE1 cell growth,"3 uM, 58 h, listed as AN1",98 and 85 and 88
same,RPE1 cell growth,"3 uM, 60 h, listed as AN1",98 and 88 and 91
same,RPE1 cell growth,"3 uM, 62 h, listed as AN1",99 and 90 and 92
same,RPE1 cell growth,"3 uM, 64 h, listed as AN1",99 and 92 and 95
same,RPE1 cell growth,"3 uM, 66 h, listed as AN1",99 and 95 and 96
same,RPE1 cell growth,"3 uM, 68 h, listed as AN1",99 and 95 and 98
same,RPE1 cell growth,"3 uM, 70 h, listed as AN1",99 and 97
same,RPE1 cell growth,"3 uM, 72 h, listed as AN1",100 and 97 and 99
same,RPE1 cell growth,"3 uM, time 20 h, listed as AN1",48 and 33 and 44
same,RPE1 cell growth,"3 uM, time 22 h, listed as AN1",54 and 36 and 46
same,RPE1 cell growth,"3 uM, time 24 h, listed as AN1",61 and 39 and 48
same,RPE1 cell growth,"3 uM, time 26 h, listed as AN1",64 and 40 and 51
same,RPE1 cell growth,"3 uM, time 28 h, listed as AN1",68 and 44 and 54
same,RPE1 cell growth,"3 uM, time 30 h, listed as AN1",73 and 49 and 57
same,RPE1 cell growth,"3 uM, time 32 h, listed as AN1",77 and 53 and 63
same,RPE1 cell growth,"3 uM, time 34 h, listed as AN1",79 and 56 and 67
same,RPE1 cell growth,"3 uM, time 36 h, listed as AN1",83 and 59 and 70
same,RPE1 cell growth,"3 uM, time 38 h, listed as AN1",87 and 65 and 74
same,RPE1 cell growth,"3 uM, time 40 h, listed as AN1",91 and 68 and 78
same,RPE1 cell growth,"3 uM, time 42 h, listed as AN1",93 and 71 and 82
same,RPE1 cell growth,"3 uM, time 44 h, listed as AN1",96 and 76 and 87
same,RPE1 cell growth,"3 uM, time 46 h, listed as AN1",97 and 81 and 90
same,RPE1 cell growth,"3 uM, time 48 h, listed as AN1",99 and 86 and 93
same,RPE1 cell growth,"3 uM, time 50 h, listed as AN1",99 and 89 and 95
same,RPE1 cell growth,"3 uM, time 52 h, listed as AN1",99 and 93 and 97
same,RPE1 cell growth,"3 uM, time 54 h, listed as AN1",100 and 96 and 98
same,RPE1 cell growth,"3 uM, time 56 h, listed as AN1",100 and 98 and 99
same,RPE1 cell growth,"3 uM, time 58 h, listed as AN1",100 and 99
same,RPE1 cell growth,"3 uM, time 60 h",100
same,RPE1 cell growth,"3 uM, time 62 h",100
same,RPE1 cell growth,"3 uM, time 64 h",100
same,RPE1 cell growth,"3 uM, time 66 h",100
same,RPE1 cell growth,"3 uM, time 68 h",100
same,RPE1 cell growth,"3 uM, time 70 h",100
same,RPE1 cell growth,"3 uM, time 72 h",100
same,RPE1 cell growth,"5 uM, 0 h, listed as AN1",28 and 25 and 22
same,RPE1 cell growth,"5 uM, 2 h, listed as AN1",34 and 28 and 26
same,RPE1 cell growth,"5 uM, 4 h, listed as AN1",38 and 28 and 29
same,RPE1 cell growth,"5 uM, 6 h, listed as AN1",41 and 30 and 31
same,RPE1 cell growth,"5 uM, 8 h, listed as AN1",45 and 33 and 32
same,RPE1 cell growth,"5 uM, 22 h, listed as AN1",58 and 48 and 49
same,RPE1 cell growth,"5 uM, 24 h, listed as AN1",61 and 48 and 50
same,RPE1 cell growth,"5 uM, 26 h, listed as AN1",63 and 49 and 51
same,RPE1 cell growth,"5 uM, 28 h, listed as AN1",65 and 52 and 51
same,RPE1 cell growth,"5 uM, 30 h, listed as AN1",68 and 53 and 54
same,RPE1 cell growth,"5 uM, 32 h, listed as AN1",69 and 54 and 55
same,RPE1 cell growth,"5 uM, 34 h, listed as AN1",72 and 53 and 56
same,RPE1 cell growth,"5 uM, 36 h, listed as AN1",73 and 55 and 57
same,RPE1 cell growth,"5 uM, 38 h, listed as AN1",75 and 56 and 57
same,RPE1 cell growth,"5 uM, 40 h, listed as AN1",78 and 58 and 59
same,RPE1 cell growth,"5 uM, 42 h, listed as AN1",79 and 57 and 60
same,RPE1 cell growth,"5 uM, 44 h, listed as AN1",81 and 57 and 60
same,RPE1 cell growth,"5 uM, 46 h, listed as AN1",83 and 58 and 62
same,RPE1 cell growth,"5 uM, 48 h, listed as AN1",85 and 58 and 63
same,RPE1 cell growth,"5 uM, 50 h, listed as AN1",87 and 57 and 63
same,RPE1 cell growth,"5 uM, 52 h, listed as AN1",88 and 60 and 65
same,RPE1 cell growth,"5 uM, 54 h, listed as AN1",88 and 59 and 68
same,RPE1 cell growth,"5 uM, 56 h, listed as AN1",90 and 59 and 68
same,RPE1 cell growth,"5 uM, 58 h, listed as AN1",91 and 58 and 69
same,RPE1 cell growth,"5 uM, 60 h, listed as AN1",92 and 61 and 72
same,RPE1 cell growth,"5 uM, 62 h, listed as AN1",92 and 59 and 73
same,RPE1 cell growth,"5 uM, 64 h, listed as AN1",93 and 60 and 78
same,RPE1 cell growth,"5 uM, 66 h, listed as AN1",93 and 60 and 79
same,RPE1 cell growth,"5 uM, 68 h, listed as AN1",94 and 59 and 82
